The record followed here is US20170305981A1, “SYNTHETIC PEPTIDES” (The University of Chicago, priority 2014, published 2017).

The data set is described as follows: Circular dichroism spectroscopy of peptide folding. Format: physicochemical. As to the method:
FIG. 10. AV199-232 is an a-helical peptide that binds heparin. Peptide folding and conformation was analyzed experimentally by circular dichroism spectroscopy (A) and calculated to be ˜42% α-helical which increased to ˜76% on binding heparin.
Given that there appeared to be a periodicity in the sequence of AV199-232 consisting of alternating polar and non-polar residues, the possibility that the peptide was folded into a amphipathic α-helix was investigated (FIG. 10). […] In silico analysis also predicted a high α-helical content. […] The amphipathic nature of the peptide was evident with polar residues and nonpolar residues (domain-L) organized to opposite sides of the helix. Domain-L is responsible for binding to VLDL. Domain-1, domain-2 and domain-H were also identified on the polar side.
In general terms: CD spectra are sensitive to the conformation of chiral molecules.

For the substance “AV199-232: 34-residue peptide, residues 199-232 of apoA-V; AV199-237 shortened by 5 residues (ARLSRCVQVLSRKLTLKAKALHARIQQNLDQLRE; listed as Homo sapiens)”, for the setting “peptide alone”, the α-helical content is listed as about 42%. Besides, the “α-helical content on binding heparin” value (with heparin) was about 76%.
